Results from one PubChem assay

The results are deposited in PubChem (AID1053133; Broad Institute, 2014).

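Vaccinia-infected cells with a two-color viral stage reporter; Venus fluorescence read on a plate reader; the cell line is not named here; timing not stated here.
The test concentration is not given here.
Percent change in Venus reporter signal; lower (more negative) values mean stronger inhibition of that viral stage.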

Values are in %.
The controls that fix the scale are not given here.
Common to all entries: measured here: Venus reporter, other viral stage.
Part of the compounds only, not a random draw; the main read-out is not listed here.

With CC(C)NC(=O)Nc1ccc2c(c1)C(=O)N([C@@H](C)CO)C[C@H](C)[C@@H](CN(C)Cc1ccc(C(F)(F)F)cc1)OCCCC[C@@H](C)O2 the assay gave activity change (Venus) -50.89%.
With CNC[C@@H]1Oc2cc(C#CCC3CCCC3)ccc2S(=O)(=O)N([C@H](C)CO)C[C@H]1C the assay gave activity change (Venus) -24.91%.
With COc1ccc(CN(C)C[C@H]2OCCCC[C@H](C)Oc3ccc(NC(=O)C4CCCCC4)cc3C(=O)N([C@H](C)CO)C[C@@H]2C)cc1 the assay gave activity change (Venus) -44.19%.
With COc1cccc(NC(=O)N2CC(=O)N3[C@H](C2)[C@H](c2ccc(C#CC4CCCC4)cc2)[C@@H]3CO)c1 the assay gave activity change (Venus) -46.52%.
With C[C@@H]1CN([C@H](C)CO)C(=O)c2cc(C#Cc3ccccc3F)cnc2O[C@H]1CN(C)C(=O)C1CCCCC1 the assay gave activity change (Venus) -68.49%.
With CC(C)COC(=O)N(C)C[C@@H]1OCc2ccccc2-c2c(n(C)c3ccccc23)C(=O)N([C@H](C)CO)C[C@H]1C the assay gave activity change (Venus) -57.04%.
With Cc1noc(C)c1S(=O)(=O)Nc1ccc2c(c1)C(=O)N([C@H](C)CO)C[C@H](C)[C@H](CN(C)CC1CCCCC1)OCCCC[C@H](C)O2 the assay gave activity change (Venus) -49.66%.
With C[C@@H]1CN([C@H](C)CO)C(=O)Cc2cc(NC(=O)Nc3ccc(C(F)(F)F)cc3)ccc2O[C@@H]1CN(C)CC1CCCCC1 the assay gave activity change (Venus) -53.89%.
With CNC[C@H]1Oc2cc(C#Cc3ccccc3OC)ccc2S(=O)(=O)N([C@@H](C)CO)C[C@@H]1C the assay gave activity change (Venus) -44.84%.
With Cc1ccc(-c2ccc([C@H]3[C@@H](CO)N4CCCCN(C(=O)Nc5ccccc5)C[C@H]34)cc2)cc1 the assay gave activity change (Venus) -71.86%.
With CO[C@H]1CN(C)C(=O)c2cc(NC(=O)Nc3cccc(Cl)c3)ccc2OC[C@H](C)NC[C@H]1C the assay gave activity change (Venus) -34.76%.
With O=S(=O)(c1ccc2ccccc2c1)N1CCN(Cc2cccc(OCCO)c2)CC1 the assay gave activity change (Venus) -39.21%.
With COc1cccc(S(=O)(=O)N2C[C@@H]3N[C@H](C2)C3c2ccc(-c3cccc(C)c3)cc2)c1 (stereo partly specified) the assay gave activity change (Venus) -86.54%.
With O=C(Nc1ccccc1)N1CCCCN2[C@@H](CO)[C@@H](c3ccc(-c4ccccc4)cc3)[C@@H]2C1 the assay gave activity change (Venus) -54.25%.
With O=C(C[C@@H]1CC[C@H]2[C@@H](COC[C@H](O)CN2Cc2cc(F)ccc2F)O1)NCc1ccc(Oc2ccccc2)cc1 the assay gave activity change (Venus) -44.56%.
With CC(C)CC#Cc1ccc2c(c1)O[C@@H](CN(C)C(=O)CN(C)C)[C@H](C)CN([C@H](C)CO)S2(=O)=O the assay gave activity change (Venus) -39.67%.
With CCCNC(=O)N1CC(=O)N2[C@H](CO)[C@H](c3ccc(C#CCC4CCCC4)cc3)[C@H]2C1 the assay gave activity change (Venus) -30.08%.
With COc1ccccc1-c1ccc2c(c1)O[C@H](CN(C)S(=O)(=O)c1ccc(F)cc1)[C@H](C)CN([C@@H](C)CO)S2(=O)=O the assay gave activity change (Venus) -38.58%.
With C[C@@H]1CN([C@@H](C)CO)C(=O)Cc2cc(NC(=O)Cc3cn(C)c4ccccc34)ccc2O[C@@H]1CN(C)Cc1ccc(C(F)(F)F)cc1 the assay gave activity change (Venus) -39.2%.
With O=C(C[C@@H]1CC[C@H]2[C@@H](COC[C@@H](O)CN2Cc2ccc(Cl)cc2)O1)NCc1cccc(F)c1 the assay gave activity change (Venus) -29.4%.
With CNC[C@H]1Oc2cc(C#Cc3ccccc3)ccc2S(=O)(=O)N([C@H](C)CO)C[C@@H]1C the assay gave activity change (Venus) -36.53%.
With COc1ccc(NC(=O)N(C)C[C@@H]2OCCCC[C@H](C)Oc3ccc(NC(=O)Cc4ccccc4)cc3C(=O)N([C@@H](C)CO)C[C@@H]2C)cc1 the assay gave activity change (Venus) -38.39%.
With Cc1ccc(-c2ccc3c(c2)O[C@@H](CN(C)C(=O)Nc2ccc(C(F)(F)F)cc2)[C@H](C)CN([C@H](C)CO)S3(=O)=O)cc1 the assay gave activity change (Venus) -70.78%.
With C[C@H]1CN([C@@H](C)CO)C(=O)c2ccccc2-c2ccccc2CO[C@@H]1CN(C)Cc1ccc(C(F)(F)F)cc1 the assay gave activity change (Venus) -52.8%.
With COc1ccccc1NC(=O)N1C[C@@H]2N[C@H](C1)C2c1ccc(-c2ccccc2)cc1 (stereo partly specified) the assay gave activity change (Venus) -59.68%.
With COc1ccc(C#Cc2ccc([C@@H]3[C@@H](CO)N4C(=O)CN(C(=O)c5ccc(F)cc5)C[C@H]34)cc2)cc1 the assay gave activity change (Venus) -38.78%.

For reference, 2 entries once more:

| compound | activity change (Venus) (%) |
|---|---|
| `C[C@@H]1CN([C@@H](C)CO)C(=O)Cc2cc(NC(=O)Cc3cn(C)c4ccccc34)ccc2O[C@@H]1CN(C)Cc1ccc(C(F)(F)F)cc1` | -39.2 |
| `COc1ccccc1-c1ccc2c(c1)O[C@H](CN(C)S(=O)(=O)c1ccc(F)cc1)[C@H](C)CN([C@@H](C)CO)S2(=O)=O` | -38.58 |